Laboratory results published in publication doi:10.1101/2020.03.04.976886.
These are yes or no findings as the source states them, for the method shown. For some assays here: In cells and extracts the contact can be indirect. Some binding calls cover weakened binding; strength is not graded here. Where a sequence is shown, tags or fusion partners need not be part of it.

Amino acid sequences for entries named in this document (tags omitted). A change or cut given only in a name is not applied to a line headed by its entry.
UniProt Q9NFU0: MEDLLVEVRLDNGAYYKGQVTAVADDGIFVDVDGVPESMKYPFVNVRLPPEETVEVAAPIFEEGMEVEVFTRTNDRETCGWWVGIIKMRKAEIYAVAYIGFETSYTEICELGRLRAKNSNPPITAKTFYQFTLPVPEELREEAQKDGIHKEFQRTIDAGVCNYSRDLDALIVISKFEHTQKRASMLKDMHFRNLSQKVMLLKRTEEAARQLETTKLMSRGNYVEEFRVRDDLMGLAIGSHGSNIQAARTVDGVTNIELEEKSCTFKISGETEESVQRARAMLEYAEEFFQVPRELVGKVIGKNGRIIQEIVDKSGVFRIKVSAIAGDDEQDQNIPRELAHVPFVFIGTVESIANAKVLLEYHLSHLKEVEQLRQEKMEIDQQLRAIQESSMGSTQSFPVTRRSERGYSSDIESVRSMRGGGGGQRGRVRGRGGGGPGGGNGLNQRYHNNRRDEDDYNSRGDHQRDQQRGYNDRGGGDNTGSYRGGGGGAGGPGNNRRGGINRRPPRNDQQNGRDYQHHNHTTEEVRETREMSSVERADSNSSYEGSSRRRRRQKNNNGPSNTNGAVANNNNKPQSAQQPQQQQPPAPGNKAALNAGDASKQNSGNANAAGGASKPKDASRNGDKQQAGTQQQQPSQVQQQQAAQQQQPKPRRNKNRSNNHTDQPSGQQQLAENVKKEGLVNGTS

Experiments:
[1] = target: T1, Flag-Myc-tagged Ythdf (Drosophila) (UniProt Q9VBZ5); experiment: co-IP
T1 sequence: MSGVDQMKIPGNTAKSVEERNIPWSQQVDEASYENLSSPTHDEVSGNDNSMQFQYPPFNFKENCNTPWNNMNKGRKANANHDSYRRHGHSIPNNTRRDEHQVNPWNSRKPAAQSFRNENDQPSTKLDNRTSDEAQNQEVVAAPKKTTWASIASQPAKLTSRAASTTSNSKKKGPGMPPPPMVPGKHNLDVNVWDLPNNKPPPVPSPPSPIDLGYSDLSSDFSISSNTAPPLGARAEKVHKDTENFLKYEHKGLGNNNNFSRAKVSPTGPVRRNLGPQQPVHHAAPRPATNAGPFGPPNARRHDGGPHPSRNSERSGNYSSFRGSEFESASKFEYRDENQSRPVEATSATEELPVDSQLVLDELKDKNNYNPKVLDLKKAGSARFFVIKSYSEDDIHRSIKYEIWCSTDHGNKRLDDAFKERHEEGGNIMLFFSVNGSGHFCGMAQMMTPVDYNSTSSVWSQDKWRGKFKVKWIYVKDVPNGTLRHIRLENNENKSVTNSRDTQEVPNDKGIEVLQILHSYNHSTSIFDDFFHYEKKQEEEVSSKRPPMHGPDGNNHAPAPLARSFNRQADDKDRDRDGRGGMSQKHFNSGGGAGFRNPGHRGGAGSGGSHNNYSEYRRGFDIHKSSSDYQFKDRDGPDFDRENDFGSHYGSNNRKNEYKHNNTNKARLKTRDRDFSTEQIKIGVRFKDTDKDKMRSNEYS

[2] = target: T2, N-GST-tagged Ythdf (full length) (Drosophila) (UniProt Q9VBZ5); experiment: pull-down
T2 sequence: T1 sequence

binding [1] | binding [2] | Substance
binds | – | Myc-tagged Fmr1 (from UniProt Q9NFU0 1-684)
– | binds | N-His6-tagged Fmr1 (220-684) (from UniProt Q9NFU0 220-684) (domain or fragment)
